In article PMC10093842 one finds binding data, which are given here for one substance.

By UniProt entry, the sequences of proteins in these tests, tags left out.
UniProt Q12905: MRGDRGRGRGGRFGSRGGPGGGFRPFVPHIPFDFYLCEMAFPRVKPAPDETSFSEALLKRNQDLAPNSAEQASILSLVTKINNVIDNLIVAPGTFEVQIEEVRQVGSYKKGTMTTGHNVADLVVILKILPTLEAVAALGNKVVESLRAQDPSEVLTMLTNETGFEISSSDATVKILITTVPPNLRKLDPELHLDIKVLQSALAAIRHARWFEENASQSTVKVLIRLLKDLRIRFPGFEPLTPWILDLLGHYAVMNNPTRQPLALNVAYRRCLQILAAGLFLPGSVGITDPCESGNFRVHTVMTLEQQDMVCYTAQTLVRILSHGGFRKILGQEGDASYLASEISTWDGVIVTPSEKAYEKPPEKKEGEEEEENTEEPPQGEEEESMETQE

The assay has as its target T1, Flag-tagged NUSAP1 full-length (nucleolar and spindle-associated protein 1) (human) (UniProt Q9BXS6).
T1 sequence: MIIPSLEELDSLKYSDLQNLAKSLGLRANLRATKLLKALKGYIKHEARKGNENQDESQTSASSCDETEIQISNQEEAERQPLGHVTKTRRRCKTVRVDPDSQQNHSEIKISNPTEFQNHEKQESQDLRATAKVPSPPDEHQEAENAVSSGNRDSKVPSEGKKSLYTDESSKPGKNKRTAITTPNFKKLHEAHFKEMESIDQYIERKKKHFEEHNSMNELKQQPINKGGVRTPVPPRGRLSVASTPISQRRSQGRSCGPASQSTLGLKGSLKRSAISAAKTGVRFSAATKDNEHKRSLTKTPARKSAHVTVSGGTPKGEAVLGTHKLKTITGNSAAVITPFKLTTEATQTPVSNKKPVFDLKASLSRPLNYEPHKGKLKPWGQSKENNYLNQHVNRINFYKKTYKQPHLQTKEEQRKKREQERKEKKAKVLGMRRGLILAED
Briefly: co-IP; extracts of LNCaP (and DU145) cells transfected with Flag-NUSAP1 (FL, ΔMT or ΔChHD) or empty vector, collected as for AP-MS; Ezview red Flag M2 affinity gel 4 h at 4 °C; elution with Flag peptide; western blot of endogenous partners. (Immunoblotting shows a protein as a band on a membrane.)

These are yes or no findings as the source states them, for the method shown. In cells and extracts the contact can be indirect. Some entries that bind do so weakly or less than the wild type. Tags and fused reporters may be left off the sequences shown.

As to ILF2 (from UniProt Q12905 1-390), the binding entry is “binds”.
